Values from PubChem BioAssay AID1259276 (Sanger Institute, 2017)
Assay: 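Kinome-wide search for kinases colon cancer cells need, and for drug partners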 (primary screen). Cell system: human C2BBe1 colorectal cancer cells. Knock-down reagent: siRNA pool against human genes. Treatment: DMSO vehicle, or one anchor drug: BYL719 at 1 µM, cetuximab at 5 µg/ml, or trametinib at 10 nM; exposure length not stated. Detection: 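Viability after knock-down relative to non-targeting siRNA controls, averaged across replicates, given as ratio and control-derived robust z-score, with per-drug synergy scores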. Scale: viability robust z-score, siRNA alone: higher = more viable cells after knock-down. Active means: 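a siRNA pool tested without drug is essential if its viability robust z-score falls under -3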. Calls: active = essential (siRNA alone); inactive = no change (siRNA alone).
In all, the deposit lists 794 reagents; this is a part drawn at random. Over the whole deposit, 24 (3%) are marked active. 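Calls come only from the siRNA-alone arm; drug synergy scores do not affect them.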 Further read-outs or replicates are left out here. Not stated in the record: the amount of reagent, the time to read-out.

| gene | viability robust z-score, siRNA alone | Call |
| --- | --- | --- |
| PCBP1 (poly(rC) binding protein 1) | -0.773 | inactive |
| GRK3 (G protein-coupled receptor kinase 3) | -0.706 | inactive |
| ELF3 (E74 like ETS transcription factor 3) | -2.42 | inactive |
| CHD9 (chromodomain helicase DNA binding protein 9) | 0.472 | inactive |
| TRPM6 | -0.112 | inactive |
| MOS (MOS proto-oncogene, serine/threonine kinase) | 0.472 | inactive |
| GSK3B (glycogen synthase kinase 3 beta) | 0.472 | inactive |
| EPHA4 (EPH receptor A4) | 0.472 | inactive |
| PIM1 (Pim-1 proto-oncogene, serine/threonine kinase) | 0.326 | inactive |
| BTK (Bruton tyrosine kinase) | 0.472 | inactive |
| PDPK1 (3-phosphoinositide dependent protein kinase 1) | -0.272 | inactive |
| FER (FER tyrosine kinase) | 0.472 | inactive |
| NME2 (NME/NM23 nucleoside diphosphate kinase 2) | 0.472 | inactive |
| CRIM1 (cysteine rich transmembrane BMP regulator 1) | -1.55 | inactive |
| RELA (RELA proto-oncogene, NF-kB subunit) | -0.321 | inactive |
| MST1R (macrophage stimulating 1 receptor) | 0.472 | inactive |
| DYRK4 (dual specificity tyrosine phosphorylation regulated kinase 4) | -0.234 | inactive |
| STK31 (serine/threonine kinase 31) | 0.472 | inactive |
| STK33 (serine/threonine kinase 33) | -1.59 | inactive |
| DBF4 (DBF4-CDC7 kinase regulatory subunit) | -3.31 | active |
| TLK1 (tousled like kinase 1) | 0.329 | inactive |
| PFKL (phosphofructokinase, liver type) | 0.472 | inactive |
| NLK (nemo like kinase) | 0.472 | inactive |
| RIPK1 (receptor interacting serine/threonine kinase 1) | -4.27 | active |
| PRKAG3 (protein kinase AMP-activated non-catalytic subunit gamma 3) | -1.23 | inactive |
| LMTK1 (lemur tail kinase 1) | -0.0933 | inactive |
| TSKS (testis specific serine kinase substrate) | -2.02 | inactive |
| MAP3K21 (mitogen-activated protein kinase kinase kinase 21) | 0.277 | inactive |
| ACVR1 (activin A receptor type 1) | 0.472 | inactive |
| PRPS1 (phosphoribosyl pyrophosphate synthetase 1) | -2.04 | inactive |
| NRBP2 (nuclear receptor binding protein 2) | -1.1 | inactive |
| CAMK4 (calcium/calmodulin dependent protein kinase IV) | 0.472 | inactive |
| STK35 (serine/threonine kinase 35) | 0.472 | inactive |
| WNK3 (WNK lysine deficient protein kinase 3) | -1.34 | inactive |
| CHKA (choline kinase alpha) | 0.472 | inactive |
| CDC73 (cell division cycle 73) | 0.472 | inactive |
| SRC (SRC proto-oncogene, non-receptor tyrosine kinase) | -0.202 | inactive |
| LATS1 (large tumor suppressor kinase 1) | 0.472 | inactive |
| FYN (FYN proto-oncogene, Src family tyrosine kinase) | 0.472 | inactive |
| STK4 (serine/threonine kinase 4) | 0.472 | inactive |
| NUP98 (nucleoporin 98 and 96 precursor) | 0.472 | inactive |
| PTEN (phosphatase and tensin homolog) | 0.129 | inactive |
| AK4 (adenylate kinase 4) | -0.679 | inactive |
| DYRK3 (dual specificity tyrosine phosphorylation regulated kinase 3) | 0.472 | inactive |
| CSNK1A1 (casein kinase 1 alpha 1) | 0.472 | inactive |
| MOK (MOK protein kinase) | 0.472 | inactive |
| PSTK (phosphoseryl-tRNA kinase) | 0.472 | inactive |
| MYLK (myosin light chain kinase) | -0.437 | inactive |
| WNK4 (WNK lysine deficient protein kinase 4) | 0.472 | inactive |
| CDKL2 (cyclin dependent kinase like 2) | 0.472 | inactive |

Reagents listed above with an active call:
| gene | viability robust z-score, siRNA alone | Call |
| --- | --- | --- |
| DBF4 (DBF4-CDC7 kinase regulatory subunit) | -3.31 | active |
| RIPK1 (receptor interacting serine/threonine kinase 1) | -4.27 | active |
